In PubChem BioAssay AID1347423 (Functional Genomics Laboratory (NCATS/FGL), 2020):
Hit rate of the full screen: of about 52,000 sequences, about 210 (0.4%) were called active.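 Rule for the calls: active = gene whose silencing raises cell survival under the drug, median off-target-corrected z-score across its silencing RNAs 2 or more; inactive = the rest.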 The list shows a part of the results.

Experiment: Resistance to Poly (ADP-Ribose) Polymerase inhibitor: Gene Identification via Genome-wide siRNA Screen
Conditions: mouse BRCA2 R2336H ES cells, olaparib, CellTiter-Glo viability; stronger effect = higher value
In short: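 Genome-wide siRNA screen (3 siRNAs/gene, 20 nM) in mouse ES cells carrying hypomorphic BRCA2 R2336H; olaparib 500 nM added 48 h post-transfection, CellTiter-Glo viability 72 h later. Normalized to plate-median negative control; MAD z-scores, gene median, seed-adjusted.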

Sequence | z-score
GGUAGGGACCUAUCCUUGGTT against Tce4 | inactive: -0.551
GCUCUCAUACUUUGAACCUTT against Pank3 | inactive: -0.333
GUGUGCUGUCGAUGUGUCUTT against 4931422A03Rik | inactive: -0.485
GCCAGUGUUAUCCAGGACUTT against Cggbp1 | inactive: -1.63
CGUGGUAGGUCCCAUUAGATT against Usp13 | inactive: -2.1
GGAAGACCUUCAGAGAGAATT against Ell2 | inactive: -0.205
GGUACAGGACCAAGAAUGGTT against 4933437N03Rik | inactive: -1.49
GGCGUAAGGCAAUGUGGGUTT against Ush3a | inactive: -1.07
GGAUUUGUUUGCUUAGCUGTT against Ctbp1 | inactive: -0.795
GGUGAUGGUGAACAAGAAATT against Lgals9 | inactive: -0.422
UGCUGGUGCCUGAUGACCATT against Defcr | inactive: -2.89
GAUAGGGAAUGCCAUACCGTT against G630024C07Rik | inactive: 0.374
CCUCGAACCAAGAUGUUCATT against Pdzrn3 | inactive: -2.02
GACUCUAAACCUAGCAGCGTT against Basp1 | inactive: 1.8
GGUCUUUGGAAAAGACACUTT against 9130427A09Rik | inactive: 1.23
GCUGAAGGGUCUCGUAUUGTT against Hes2 | inactive: 0.234
CCGCCGAUGAGUUUGUUAATT against Hsd17b3 | inactive: 0.907
GGGAUGCAUUACUUACACATT against B230120H23Rik | inactive: 0.55
GGCACAAGAUUAUUUAAGUTT against 2010300G19Rik | inactive: 0.805
GGAAUGGUGAUGGAGUGGATT against 1700113I22Rik | inactive: 0.467
GGAUUUUUAUAACCCACUGTT against Cldn9 | inactive: -0.307
GGGCUGAUGCUUAAACAAATT against V1rg1 | inactive: 0.475
GGUCAUGAUCAAGACACAUTT against 9330187M14Rik | inactive: -0.98
GGAAGCAGAGCAGCUGUUUTT against Skiv2l | inactive: 0.449
GGUUGUCUUGACACCCUACTT against Tnfrsf1b | inactive: 1.61
GCAAUUUCCUGUGUUAAUATT against Rab3c | inactive: 0.498

Sequence | z-score
GUUACAAAACAUCGGUGGGTT against 2210413P10Rik | inactive: -0.457
UGAUAAGGCAGCCGUAUCCTT against Amelx | inactive: -0.6
GGCAGUCACUGGCUAAAUGTT against Ugt2a1 | inactive: 0.831
GGUCAAUAAAGAGUGUGAATT against 2200001I15Rik | inactive: -2.26
GGUCUGACAUUACUCAAAUTT against Rad51 | inactive: 0.335
GGUCUGGAGACAAUCAUCATT against 9930039A11Rik | inactive: -0.129
GGUUCACUCCUGAUACCACTT against 5330420D20Rik | inactive: 1.33
GGACUUUUGGAUAACUUAGTT against 1200008A14Rik | inactive: -0.788
GGACAAUGGUUCCUUGGAUTT against Cdc25c | inactive: 0.0582
GGCCAUUCACGUUUUACUCTT against MGC58970 | inactive: 0.067
GGUAUCGACCACAGAUCAUTT against Plxnd1 | inactive: 0.52
GGUGCUCAUGGAGAAGUUATT against Mlstd1 | inactive: -0.524
GCGGCAUCUACUUAAUAUGTT against CRG-L1 | inactive: 0.109
GGAUUAUGGAAAGAACUUUTT against Sort1 | inactive: 0.111
GGUACUAAAUAAAAGACCGTT against Dsc2 | inactive: 2.41
GCACGCCUCUUUCAGCUAUTT against Pitx3 | inactive: 0.612
GGAGCCUCAGGUCCAAAUGTT against 4931417G12Rik | inactive: -1.39
CCCACUUUGAAAAAGACUCTT against 4930486G11Rik | inactive: 0.508
CGAUUUAAUGUCAACAUUGTT against Arhgap5 | inactive: -0.531
GUGGGAUUCCUGUACAAAUTT against Olfr1118 | inactive: 0.247
CGCUCUGUUAAUGCAGGAUTT against Papss1 | inactive: -0.134
CCCACUGAUGCUAUUUCUATT against Rad1 | inactive: -2.33
GGCAUUCCAGAGAAAGCGUTT against F3 | inactive: 0.611
GCAGCUAGAUAAUUAACUATT against 9030605H24Rik | inactive: 0.0531
GGCCUGUAUCACUUUUAUCTT against Pcsk2 | inactive: 0.392
GCACAAGACCUGCAUACUATT against Ttc5 | inactive: 0.16

Laid out differently: entries from further up
Sequence	z-score
GGGCUGAUGCUUAAACAAATT against V1rg1	inactive: 0.475
GUUACAAAACAUCGGUGGGTT against 2210413P10Rik	inactive: -0.457
GGCAGUCACUGGCUAAAUGTT against Ugt2a1	inactive: 0.831
GGACUUUUGGAUAACUUAGTT against 1200008A14Rik	inactive: -0.788
GCACGCCUCUUUCAGCUAUTT against Pitx3	inactive: 0.612
GGCAUUCCAGAGAAAGCGUTT against F3	inactive: 0.611

Later entries

Sequence | z-score
CCACUCCGAAACCAUCAGCTT against Accn1 | inactive: 0.749
GGACAAGCUGCAUCUGUUUTT against Rgma | inactive: -1.2
GCACCCAUAUCAACGAGGUTT against Olfr924 | inactive: 1.41
GGUACAACAAAUCUUAUCATT against Abca6 | inactive: 0.299
GGUGGAAUUCAUUUUGACATT against Dnajb6 | inactive: 0.397
GGACUAUGCCAGGAAACUGTT against Pgls | inactive: -0.24
GGCAUAAACCUUCUUGCUCTT against Ccl22 | inactive: 0.282
CCUCUCCCUAAUUAUCUUUTT against Dscr6 | inactive: 1.37
GCCACUGAGAUGUGACGAATT against Pbp2 | inactive: 0.0135
GAAUCGGAGGACAAAAUACTT against Emx1 | inactive: -0.0963
CCCAGAACGGGAUGAUUCUTT against Trex2 | inactive: -0.513
GGGAUCGUCCAGAUCUAAUTT against Apobec3 | inactive: 0.404
GGAACUGGGUCCUCAUUCCTT against Capn1 | inactive: -0.0333
GGAGAUACCCUCGAGUAUATT against Lrrtm3 | inactive: -0.474
CCGACCAGAAGCUUUAAAGTT against Sepx1 | inactive: -0.448
CGGAUGCGACAAAAAUCACTT against Il4 | inactive: 1.18
GGUAAAGACUGGAUGGCUATT against Art5 | inactive: 1.41
GGAGCAACAACUUAAAUGUTT against Slc16a4 | inactive: 0.605
CCCAUACUGUCACUUUAAGTT against Hist1h2bg | inactive: -1.44
GGAGAAAGACCAUUACUGUTT against Ly6e | inactive: -0.824
GGGAUUUUAAGAGUUGACUTT against Cyp3a41 | inactive: 0.409
CCAUUCGGGUGAAGUUCCATT against Lsm7 | inactive: -0.786
GCCCGACCUGUUGAGAAGATT against Trip3 | inactive: 0.734
GCGGCGAUACUUCUACUUGTT against Adrbk1 | inactive: 0.195
GCUACCAAUAGGAAUAAAATT against V1re2 | inactive: 0.624
GGAAGUGUUCACCCGAUUCTT against Ckb | inactive: -0.677

Sequence | z-score
GGGAGUUUGACAUCUUCUATT against Lrrk1 | inactive: -0.977
GGAGCUGGACCUGCUGUUATT against 0610006O14Rik | inactive: 1.74
GUUUCUAGCUACCUUCCAGTT against Aqp11 | inactive: -0.853
CCAUGCAGUACUUCAUCUUTT against Olfr1440 | inactive: 0.284
UGAAAAGAGCAAUGAAGAATT against Olfr177 | inactive: -0.165
GGCUGUGGUGAAGACUUUCTT against Cd81 | inactive: -0.38
GGCAGUGAAAGAACUGGACTT against Serpina1b | inactive: 0.306
GCCUAUUCACCAAAUCACATT against Sdfr2 | inactive: 0.192
GGUUUUACGAAGCUUACAATT against Myo7a | inactive: -0.413
GGCACCUCCUGUUACAUACTT against LOC73072 | inactive: -0.998
GGACAAGGUCAGCAGUAUGTT against Ss18l1 | inactive: 1.21
GCUUCAGAUUGGUGUGAUATT against Rec8L1 | inactive: 0.478
GGAGGAAUUACAAUAGCCATT against Odz1 | inactive: 0.168
GGCACUCCUCUUUGUUUUCTT against Olfr414 | inactive: 0.292
GGAGAAGGCAACUUCUGUUTT against 9930016F01Rik | inactive: -0.578
GGUGAUUAAAUACUGCUCATT against V1rc12 | inactive: -1
GGAAGGUGUCAAUAAAGAUTT against 2310061G07Rik | inactive: 0.831
CCAAAAGCAGCACAUUUCATT against 5730590G19Rik | inactive: -0.203
CGAUUAACCCACUCUUGUCTT against Mapkapk2 | inactive: -0.748
GAGACUAGACUAACCCUGUTT against Galr3 | inactive: 0.753
CCAAAAGGACCAAUCAGUUTT against Slc1a2 | inactive: -1.16
GGUUCUAGAAAACAUGAACTT against Tdrd1 | inactive: -0.0126
GUUCCACUACUUCUGCUCCTT against Olfr583 | inactive: 1.05
GCCAGUCGUAACAUAUUCUTT against Pip5k3 | inactive: 0.78
GCCUCUGCAUAUGAUUACGTT against Myom1 | inactive: -0.0769
CCAUAUACCCUCGAUGCCATT against 1700095H12 | inactive: 0.0373
